Some entries share one result that the patent states for a list of compounds. At least one structure is not confirmed: it was looked up by name or label, or the drawing left a doubt.
Tested on: MCF7 cells
Experiment: Mammosphere formation assay (CSC activity/propagation)
Format: cell-based
Conditions: 100 μM; MCF7 cells treated with chronic hypoxia; FIG. 9E

Question: With CC1(C)CC(O)CC(C)(C)N1[O] [4-hydroxy-TEMPO] as the compound, how does the “inhibition of mammosphere formation” value read?
Answer: Its value is “more than 70%”.
